# Out of some 410,000 compounds screened, about 18,000 (4.4%) were called active. Inconclusive means that the source gave no clear call. Such entries were picked first, then a sample of the others. Cut-off read from the data, not from the text of the source: active = activity change below about -60%; inconclusive = no clear call, values can overlap the other calls; inactive = above about -39%. A structure can be active in one record and inactive in another.
# Experiment: qHTS Assay for inhibitors of the human cytomegalovirus (HCMV)
# Settings: HFF cells, HCMV-luciferase reporter, 72 h; at 57.5 µM; hits give low values
# Method in brief: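 Luciferase read-out from HCMV-luciferase-infected HFFs (MOI 1 PFU/cell) 72 h post infection at 37C; compounds added after 16 h cell attachment; activity normalized between buffer-only basal and Salinomycin (10uM) inhibitor controls.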
# % is set by controls: 0 for no effect and ±100 for the full control effect.
row,Structure (SMILES),"activity change, negative = inhibition"
1,CCN(CC)CCNC(=O)CCc1n[nH]c(=O)c2ccccc12,inactive: -8.61%
2,CCCCN(C)S(=O)(=O)c1ccc(NC2=NS(=O)(=O)c3ccccc32)cc1,inactive: 4.06%
3,Cc1csc(SCCn2c(Br)nc3c2c(=O)[nH]c(=O)n3C)n1,inconclusive: -45.5%
4,c1ccc2c(SCc3cn4ccccc4n3)nncc2c1,active: -60.5%
5,COCCNC(=O)Nc1ccc2nc(-c3cccs3)c(-c3cccs3)nc2c1,inactive: -18.4%
6,CCC1CCCCN1Cc1c(O)ccc2c(=O)c(-c3ccccc3)coc12 (stereo not drawn),active: -92.2%
7,C=CCc1cccc2cc(C(=O)Nc3ccccc3C(=O)O)c(=O)oc12,inactive: 3.42%
8,O=C(CNC(=O)c1cccs1)OCC(=O)c1ccc([N+](=O)[O-])cc1,active: -64.7%
9,COc1ccccc1NC(=O)CSc1ccc(-c2ccccn2)nn1,active: -101%
10,O=C(c1ccccc1-n1cccn1)N1CCc2c([nH]c3ccccc23)C1c1ccccn1 (stereo not drawn),inconclusive: -49.6%
11,COc1cccc(CNC(=O)Cn2nc(-c3ccc(C)cc3)ccc2=O)c1,inactive: -34.7%
12,CC(/C=C/c1ccccc1)=N\NC(=O)c1cc(C)[nH]n1,inconclusive: -57.3%
13,CCC(C(=O)O)n1nc(-c2ccccc2)c2cc(Cl)ccc21 (stereo not drawn),inactive: 7.78%
14,Cc1ccc(-c2csc(NC(=O)COc3ccc(N(C)S(=O)(=O)c4ccc(C)cc4)cc3)n2)cc1,inconclusive: -46.6%
15,CN1CC(C(=O)c2ccc(Cl)cc2)C(c2ccc(N(C)C)cc2)C1 (stereo not drawn),inconclusive: -55.7%
16,CC(C)N(Cc1nc(-c2ccc3c(c2)OCO3)no1)CC1CCC(=O)N1 (stereo not drawn),inconclusive: -52.7%
17,Clc1cccc(-c2nc3ccccn3c2Nc2ccc3c(c2)OCCO3)c1,active: -104%
18,CC1(CCC(=O)O)C(=O)CCC2C1CCC1(C)C2CCC1(C)O (stereo not drawn),inactive: -10.8%
19,COc1ccc(C2=NN(C(N)=S)C(c3ccco3)C2)cc1 (stereo not drawn),inactive: -8.24%
20,CC(C)CC(=O)Nc1nnc(-c2ccco2)s1,inactive: 104%

row,Structure (SMILES),"activity change, negative = inhibition"
1,CCCCn1c(N)c(N(CC(C)C)C(=O)c2ccc(-c3ccc(Cl)cc3)o2)c(=O)[nH]c1=O,inconclusive: -45.1%
2,O=C(O)c1nn(CC(=O)N(C2CCCCC2)C2CCCCC2)c(=O)c2ccccc12,inactive: -9.35%
3,COc1ccc2nc(NC(=O)C3CCN(S(=O)(=O)c4cccc5nsnc45)CC3)sc2c1,active: -74.8%
4,COc1ccc(C(=O)NC(=S)Nc2cccnc2)cc1Cl,inactive: -16%
5,CCCCCSc1nnc(-c2ccccc2NC(C)=O)c(=O)[nH]1,inconclusive: -44.5%
6,NC(=O)C1CCN(c2nc(-c3ccccc3)nc3c2oc2ccccc23)CC1,inconclusive: -42.4%
7,COC(=O)C1=C(C(=O)OC)[C@]2([C@H]3CCCCN[C@@H](Cc4ccccc4)C(=O)N3Cc3ccccc3)C=C[C@H]1O2,active: -69.5%
8,CC/C(=N\NC(=O)c1nnn(-c2nonc2N)c1-c1cccs1)c1ccccc1,inconclusive: -46.7%
9,Cc1ccc2[nH]c3c(=O)n(CC(=O)NCCCN(C)Cc4ccccc4)ncc3c2c1,inconclusive: -49.5%
10,CCN(CC)C(=O)CSc1nc2c(sc(=S)n2-c2ccccc2)c(=O)n1-c1ccc(OC)c(OC)c1,active: -68.4%
11,NS(=O)(=O)c1ccc(-c2ccc(/C=C3\NC(=S)NC3=O)o2)cc1,inactive: 7.53%
12,COCCSc1ccccc1C(=O)Nc1ccc(Cl)cc1,inconclusive: -53.1%
13,O=C(CSc1n[nH]c(=O)[nH]c1=O)NC1CCCCC1,inactive: 34.5%
14,COc1ccc(-c2nnc(SCC(=O)NCc3cccs3)n2C)cc1,inconclusive: -51.6%
15,O=C(Cc1coc2ccc3ccccc3c12)Nc1nnc(C2CC2)s1,active: -77.4%
16,CCOC(=O)C1NN=C(C(=O)c2ccccc2)C1c1ccc(OC)cc1 (stereo not drawn),inconclusive: -44.7%
17,CC1=C(C(=O)NCc2ccccc2)C(c2cc(Br)cc(Br)c2OC(C)C)NC(=O)N1 (stereo not drawn),inconclusive: -43.2%
18,CC(=O)NCCNC(=O)c1ccc(Sc2ccccc2)c([N+](=O)[O-])c1,inactive: 2.89%
19,CC1CCN(C(=O)c2ccc3c(c2)NC(=O)CN3)CC1,inactive: -12.7%
20,N#Cc1c(N)n(CCOC(=O)c2cccc([N+](=O)[O-])c2)c2nc3ccccc3nc12,inactive: -16.2%

row,Structure (SMILES),"activity change, negative = inhibition"
1,Cc1nc2c(-c3ccc(F)cc3)c(C)nn2c(N2CCOCC2)c1C,inactive: -36.1%
2,CC1=C(C#N)C(c2cccnc2)C2=C(CC(c3ccc(Cl)cc3)CC2=O)N1 (stereo not drawn),inconclusive: -48.7%
3,O=C1CN=CN=CN1c1ccc(Cl)cc1Cl,inconclusive: -40.1%
4,CN(C)S(=O)(=O)N1CCC(Oc2ccc(C(=O)NCC(C)(C)CO)cc2)CC1,active: -63.7%
5,Cc1cccc(-n2ncc(Cl)c(Cl)c2=O)c1,active: -104%
6,O=C(NCCCN1CCN(Cc2ccccc2)CC1)C1CCN(c2nnc(-n3cccc3)s2)CC1,inconclusive: -41.7%
7,N#Cc1cnc(NN)nc1,inactive: -35.4%
8,Cc1ccc(COCCN2CCN(S(=O)(=O)c3ccccc3)CCC2=O)cc1,inactive: -30%
9,O=C(NCc1ccco1)c1ccc2ccccc2c1,inactive: 18.7%
10,O=C(CCl)N(O)c1ccc(C=Cc2ccccc2)cc1,inactive: 7.63%
11,COc1ccc(NC(=O)CC2C(=O)OCC3CCCCN32)cc1Cl (stereo not drawn),inconclusive: -40.2%
12,COc1ccc(-c2ccc(CNCCCSc3nnnn3C)o2)cc1Cl,inactive: -13.7%
13,COc1cc(Br)c(/C=C/c2ccc3cccc(O)c3n2)cc1OC,active: -86.7%
14,CN(O)/C=N/C(=S)Nc1ccc(Cl)cc1Cl,inconclusive: -43%
15,O=C(Cc1cccs1)NCc1ccc(F)cc1,inactive: 14.2%
16,CCOC(=O)/C=C1\CN(Cc2cc(OC)c(OC)c(OC)c2)S(=O)(=O)c2ccccc21,inconclusive: -41.1%
17,COc1ccc(-c2cc3nc(C)cc(NCCO)n3n2)cc1,inactive: -6.73%
18,C[C@@H]1CN([C@@H](C)CO)C(=O)CCCn2nncc2CO[C@H]1CN(C)C(=O)c1ccc(N2CCN(C)CC2)cc1,inactive: -9.35%

# Look-ups from the list.
# Value of O=C(Cc1cccs1)NCc1ccc(F)cc1 under activity change, negative = inhibition: inactive: 14.2%
# Value of CCOC(=O)/C=C1\CN(Cc2cc(OC)c(OC)c(OC)c2)S(=O)(=O)c2ccccc21 under activity change, negative = inhibition: inconclusive: -41.1%
# Value of CN(O)/C=N/C(=S)Nc1ccc(Cl)cc1Cl under activity change, negative = inhibition: inconclusive: -43%
# Value of Cc1cccc(-n2ncc(Cl)c(Cl)c2=O)c1 under activity change, negative = inhibition: active: -104%
# Value of O=C(CCl)N(O)c1ccc(C=Cc2ccccc2)cc1 under activity change, negative = inhibition: inactive: 7.63%

# From PubChem BioAssay AID1259415 (National Center for Advancing Translational Sciences (NCATS), 2018)
